Assay results from the supplement of paper PMC10735217.
Structures can show the parent of a compound that is named as a salt. The list shows a part of the results. This data set is noisy: repeats of one test often differ as much as different tests do.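 In a drug-repurposing library screen, luminescence reads luciferase driven by eight TEAD-binding elements, stably integrated into human kidney-derived cells. Compounds scoring over five robust Z scores above the plate mean are called hits.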

Test system: HEK293A TEAD-LUC reporter
Assay: TEAD-luciferase reporter activity (YAP activation), robust Z score vs plate; higher = stronger YAP/TEAD activation
Details: 24 h

Structure (SMILES) | TEAD-luciferase reporter activity (compound concentration: 200 nM) | TEAD-luciferase reporter activity (compound concentration: 2 uM) | TEAD-luciferase reporter activity (compound concentration: 10 uM)
c1cc2c3c(c1)[C@H]1CCC[C@H]1CN3CCNC2 [vabicaserin] | inactive: 3.48 | inactive: 0.448 | inactive: -0.709
CC(C)C[C@@H](NC(=O)[C@H](C)NC(=O)CNC(=O)[C@@H](NC=O)C(C)C)C(=O)N[C@@H](C)C(=O)N[C@@H](C(=O)N[C@H](C(=O)N[C@@H](C(=O)N[C@@H](Cc1c[nH]c2ccccc12)C(=O)N[C@H](CC(C)C)C(=O)N[C@@H](Cc1c[nH]c2ccccc12)C(=O)N[C@H](CC(C)C)C(=O)N[C@@H](Cc1c[nH]c2ccccc12)C(=O)N[C@H](CC(C)C)C(=O)N[C@@H](Cc1c[nH]c2ccccc12)C(=O)NCCO)C(C)C)C(C)C)C(C)C | inactive: 0.053 | inactive: 1.72 | active: 5.6
COC(=O)C1=C(C)NC(C)=C(C(=O)OC(C)C)C1c1ccccc1[N+](=O)[O-] (centres undefined) | inactive: -1.16 | inactive: 2.13 | inactive: -0.63
CNC(=O)c1ccc(N2C(=S)N(c3ccc(C#N)c(C(F)(F)F)c3)C(=O)C2(C)C)cc1F [enzalutamide] | inactive: -2.65 | inactive: -2.04 | inactive: 0.433
CCCCN(CCCC)CCNc1nc(-c2ccccc2)no1 [Butalamine] | inactive: 1.08 | inactive: 0.00691 | inactive: -0.0318
Clc1ccc(C2CNC(C3CC3)C2)cc1 (centres undefined) | inactive: -0.923 | inactive: 2.49 | inactive: -0.796
CCCCCNCC(N)=O [Milacemide] | inactive: -1.8 | inactive: -0.426 | inactive: -1.15
Cc1ccc(COC(=O)N2CCC(CNc3ncccn3)C(F)C2)cc1 (centres undefined) | inactive: 2.18 | inactive: -0.461 | inactive: 0.884
C[C@H](NS(C)(=O)=O)c1ccc(S(=O)(=O)c2ccc(Cl)cc2S(=O)(=O)c2ccccc2F)cc1 | inactive: -0.496 | inactive: 0.689 | inactive: -1.02
C#C[C@]1(CO)O[C@@H](n2cnc3c(N)nc(F)nc32)C[C@@H]1O | inactive: 1.45 | inactive: -0.421 | inactive: 0.928
COC(=O)N1CCN(Cc2cccc(NC(=O)Nc3ccc(C)nc3)c2F)CC1 [omecamtiv mecarbil] | inactive: -0.5 | inactive: 0.887 | inactive: -0.506
COC1=C(C)C(=O)C(/C=C(\CCCCCc2cccnc2)C(=O)O)=C(C)C1=O | inactive: -1.08 | inactive: -0.782 | inactive: -0.347
O=C(CCCN1CCC(O)(c2ccc(Cl)cc2)CC1)c1ccc(F)cc1 [Haloperidol] | inactive: 2.25 | inactive: 1.09 | inactive: -1.52
CC(Cc1ccccc1)(NC(=O)CN)c1ccccc1 (centres undefined) [Remacemide hydrochloride] |  | inactive: -2.02 | 
Cc1nc2cc(NC(=O)c3ccc(-c4ccc(F)cc4)nc3C)ccc2s1 | inactive: 0.0808 | inactive: 0.269 | active: 8.75
O=C1CC(=O)[O][Pt]2([NH2+]C[C@H]3OC4(CCCC4)O[C@@H]3C[NH2+]2)[O]1 | inactive: -1.6 | inactive: 0.309 | inactive: -1.82
CNC(=O)c1cc(OC)c(O[C@@H](C)C(=O)N2CCN(C(=O)c3ccccc3)C[C@H]2C)cn1 | inactive: 1.64 | inactive: -0.989 | inactive: 2.26

Single records, as listed above:
C[C@H](NS(C)(=O)=O)c1ccc(S(=O)(=O)c2ccc(Cl)cc2S(=O)(=O)c2ccccc2F)cc1 as listed: TEAD-luciferase reporter activity (compound concentration: 200 nM): inactive: -0.496; TEAD-luciferase reporter activity (compound concentration: 2 uM): inactive: 0.689; TEAD-luciferase reporter activity (compound concentration: 10 uM): inactive: -1.02
COC1=C(C)C(=O)C(/C=C(\CCCCCc2cccnc2)C(=O)O)=C(C)C1=O as listed: TEAD-luciferase reporter activity (compound concentration: 200 nM): inactive: -1.08; TEAD-luciferase reporter activity (compound concentration: 2 uM): inactive: -0.782; TEAD-luciferase reporter activity (compound concentration: 10 uM): inactive: -0.347

Going on with the list.

Structure (SMILES) | TEAD-luciferase reporter activity (compound concentration: 200 nM) | TEAD-luciferase reporter activity (compound concentration: 2 uM) | TEAD-luciferase reporter activity (compound concentration: 10 uM)
CN1C(CCl)Nc2cc(Cl)c(S(N)(=O)=O)cc2S1(=O)=O (centres undefined) [Methyclothiazide] | inactive: -0.82 | inactive: -1.42 | inactive: 0.445
O=C(OC[C@H]1O[C@@H](OC(=O)c2cc(O)c(O)c(OC(=O)c3cc(O)c(O)c(O)c3)c2)[C@H](OC(=O)c2cc(O)c(O)c(OC(=O)c3cc(O)c(O)c(O)c3)c2)[C@@H](OC(=O)c2cc(O)c(O)c(OC(=O)c3cc(O)c(O)c(O)c3)c2)[C@@H]1OC(=O)c1cc(O)c(O)c(OC(=O)c2cc(O)c(O)c(O)c2)c1)c1cc(O)c(O)c(OC(=O)c2cc(O)c(O)c(O)c2)c1 | inactive: -0.0382 | inactive: -1.76 | inactive: -0.763
O=C(NCc1c(F)cc(F)cc1F)c1cn2c(c(O)c1=O)C(=O)N1[C@H]3CC[C@H](C3)O[C@@H]1C2 [Bictegravir] | inactive: -1.27 | inactive: -0.34 | inactive: -0.513
N=C(N)NCCC[C@H](NC(=O)OCCCCCn1cnc2c(O)ncnc21)C(=O)O | inactive: -1.48 | inactive: -2.14 | inactive: 0.673
Cn1cc(C(=O)NCc2ccc(Cl)cc2)c(=O)c2cc(CN3CCOCC3)sc21 | inactive: -1.17 | inactive: 2.31 | inactive: 0.12
Cc1cn(C2CC(O)C(CO)O2)c(=O)[nH]c1=O (centres undefined) [Thymidine] | inactive: -0.972 | inactive: -0.309 | inactive: 0.844
Cc1cccc(/C=N/N2CCN(C(c3ccccc3)c3ccccc3)CC2)n1 [ropizine] | inactive: -1.27 | inactive: -0.594 | inactive: 0.919
CCc1noc(CNc2cc(-c3ccccc3)nc3c(C)c(C)nn23)n1 | inactive: -1.05 | inactive: -1.03 | inactive: 0.405
CCOC(=O)c1ncc2[nH]c3cccc(OC(C)C)c3c2c1C | inactive: 1.29 | inactive: -0.728 | inactive: 0.277
Cc1oc(-c2ccccc2)nc1CCOc1ccc(CC2C(=O)NOC2=O)cc1 (centres undefined) | inactive: -0.851 | inactive: -0.409 | inactive: -1.39
O=C(CS)Nc1ccccc1 | inactive: 0.618 | inactive: 1.89 | inactive: -0.229
CS(=O)(=O)CCCNCC(O)COc1ccc(C#N)cc1 (centres undefined) | inactive: 1.99 | inactive: -0.621 | inactive: 4.35
NC(=O)Nc1ccc(S(=O)(=O)c2ccc(N)cc2)cc1 | inactive: -1.19 | inactive: 0.337 | inactive: 0.589
[K][Br] | inactive: -0.612 | inactive: -1.61 | inactive: -1.21
Oc1ccc(O)cc1 | inactive: -0.738 |  | inactive: 2.7
Oc1ccc(O)cc1 [hydroqui   , 1.5%] |  | inactive: 0.393 | 
